Measured values taken from PubChem BioAssay AID2417 (National Center for Advancing Translational Sciences (NCATS), 2010).
Screen size: about 140,000 compounds; about 4,300 (3.1%) were called active. The shares of active, inactive and inconclusive entries below differ from those in the screen.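 Rule for the calls: active = readout at or below -70, meaning at least 70% loss of cells showing the perinucleolar compartment, a nuclear body marking cancer cells; inconclusive = readout between -30 and a set limit; inactive = the rest.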

assay: High Content Assay for Compounds that inhibit the Assembly of the Perinucleolar Compartment; details: PC3M PTB-GFP, PNC prevalence imaging, 16 h; at 10 µM; stronger effect = lower value;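 note: plate controls were DMSO wells for no effect and camptothecin positive control wells for full effect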
Summary of the method: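 Read-out is percentage of cells bearing a perinucleolar compartment, from automated 20x imaging of fixed, Hoechst-stained PC3M PTB-GFP cells. Cells were seeded 4 h, then exposed 16 h to compound (23 nl of library stock) in duplicate plates.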

SMILES	activity change (PNC), negative = inhibition
CCCCCCc1cc2cc(-c3nnc(-c4ccccc4OC)o3)c(=O)oc2cc1O	inactive: -12.9%
CCN(CCCNC(=O)COc1cc(=O)n(C)c2ccccc12)c1ccccc1	inactive: 11.4%
Cc1ccccc1N(CC(=O)Nc1ccccc1C(=O)O)S(C)(=O)=O	inconclusive: -59.4%
O=C(/C=C\c1ccco1)Nc1ccc(N2CCN(C(=O)c3ccccc3)CC2)cc1	inactive: 43.7%
Cc1ncsc1CCOC(=O)c1cccc([N+](=O)[O-])c1	inconclusive: -43.4%
C/C(=N\NS(=O)(=O)c1ccc(Cl)c([N+](=O)[O-])c1)c1ccc(C)o1	inconclusive: -51.5%
COc1cccc(NC(=O)c2ccccc2-c2nc(-c3ccc(Cl)cc3)no2)c1	inconclusive: -64.1%
CS/C(=C\[N+](=O)[O-])Nc1ccc(Cl)cc1	inconclusive: -57.4%
CC1(C)C(=O)OC(c2c(F)c(F)c(F)c(F)c2F)C2(CCCCC2)C1=O (stereo unspecified)	inconclusive: -58.4%
COc1cc(CNCc2ccccn2)ccc1OCC(=O)NC(C)(C)C	inconclusive: -34.2%
CC(C)C[C@H](NC(=O)OC(C)(C)C)c1nnc(SCC(=O)Nc2ccc(Br)cc2)o1	inconclusive: -31.7%
COc1ccc(CC(=O)NNS(=O)(=O)c2ccc3ccccc3c2)cc1OC	inconclusive: -32.6%
Cc1ccc2c([N+](=O)[O-])cccc2n1	inconclusive: -73.8%
CCN(CCCNC(=O)COc1cc(=O)n(CC)c2ccccc12)c1ccccc1	active: -100%
COc1cccc(N/C=C/C(=O)c2ccc(Cl)cc2)c1	inactive: 24%
Cc1nnc(SCC(=O)Nc2ccc3c(c2)OCO3)o1	inactive: 55.6%
CCc1cccc(CC)c1NC(=O)/C(C#N)=C/c1ccccc1C(F)(F)F	inconclusive: -58%
COc1ccc(-n2nnnc2SCC(=O)Nc2cccc(C)n2)cc1OC	inactive: -8.44%
O=c1c2ccccc2n2c(-c3cccc(Cl)c3)nnc2n1Cc1ccccc1	inactive: 15.3%

By substructure, those above with a tert-butyl group (2)
SMILES	activity change (PNC), negative = inhibition
COc1cc(CNCc2ccccn2)ccc1OCC(=O)NC(C)(C)C	inconclusive: -34.2%
CC(C)C[C@H](NC(=O)OC(C)(C)C)c1nnc(SCC(=O)Nc2ccc(Br)cc2)o1	inconclusive: -31.7%

Remaining list, next part.

SMILES	activity change (PNC), negative = inhibition
O=C(O)c1ccc(Sc2nnc(-c3cccc(Br)c3)o2)c([N+](=O)[O-])c1	inactive: 17.8%
COC(=O)CCCCCN1C(=O)NC(c2ccccc2)C(C(=O)OCc2ccccc2)=C1C (stereo unspecified)	active: -92.3%
O=C(C1CCCCC1)N1CCN(C(=O)C2CCCCC2)CC1	inconclusive: -63%
CCOC(=O)C1CCN(C(=S)Nc2cc(OC)c(OC)cc2C(=O)OC)CC1	inactive: -22.3%
O=C(c1ccc(Cl)cc1)[C@@H]1[C@@H]2C(=O)N(c3ccc(Cl)cc3)C(=O)[C@@H]2C2c3ccccc3C=NN21 (stereo partly specified)	inactive: -24.3%
CCOC(=O)Cn1c(S(=O)(=O)Cc2ccccc2Cl)nc(-c2ccccc2)c1-c1ccccc1	active: -83.6%
O=C(CCS(=O)(=O)c1ccc(Br)cc1)Nc1ccccn1	inconclusive: -31.2%
CN(C)/C=N/c1sc2c(c1C#N)CC(C)(C)NC2(C)C	inconclusive: -41.2%
CCN(c1ccccc1)S(=O)(=O)c1cc(C(=O)Nc2ccccc2Cl)ccc1F	inconclusive: -44.6%
CC(C)n1nc(C(=O)Nc2nnc(SCc3c(Cl)cccc3Cl)s2)c2ccccc2c1=O	inactive: 9.61%
Nc1nnc(-c2ccco2)s1	inconclusive: -34%
Cc1ccc(/C=C/C(=O)Nc2cc(C)on2)cc1	inconclusive: -30.6%
N#Cc1nc(-c2ccccc2)oc1NCCN1CCCCC1	inconclusive: -49.2%
Cc1c(NC(=S)N/N=C/C=C/c2ccc([N+](=O)[O-])cc2)c(=O)n(-c2ccccc2)n1C	active: -109%
Cc1ccc(C)c(NS(=O)(=O)c2cc(C(=O)NCCC3=CCCCC3)ccc2C)c1	inconclusive: -78.5%
CC(=O)c1ccc(NC(=O)CO/N=C(\C)c2cccs2)cc1	inactive: -6.62%
Cc1ccc(S(=O)(=O)N(CC(O)CN(C)C)c2ccccc2)cc1 (stereo unspecified)	inconclusive: -40.8%
Cc1ccc(S(=O)(=O)NCCSCc2ccccc2)cc1	inconclusive: -45.1%
Cn1c(=O)[nH]c(=O)c2c1nc(N1CCCCCC1)n2CCSc1nc2ccccc2[nH]1	inactive: 35.4%

SMILES	activity change (PNC), negative = inhibition
O=C(N/N=C/c1cccc(OCc2ccccc2)c1)c1cccs1	inactive: -0.335%
COc1ccc(CCNC(=O)c2ccc(CN3CCC(Cc4ccccc4)CC3)cc2)cc1	inactive: 18.6%
Cn1cnc2c1c(=O)n(Cc1ccc(F)cc1Cl)c(=O)n2C	inconclusive: -48.3%
COc1ccc(C2NC(=O)NC(O)(C(F)(F)F)C2C(=O)c2ccc(C)cc2)cc1 (stereo unspecified)	inactive: -8.92%
COc1ccc2[nH]c(=O)c(C(c3nnnn3C3CCCC3)N3CCN(Cc4ccc5c(c4)OCO5)CC3)cc2c1 (stereo unspecified)	inconclusive: -51.3%
Cc1ccc2oc(-c3ccc(NC(=O)c4cccnc4)cc3)nc2c1	inconclusive: -33.7%
O=C(Nc1nc(-c2cc3ccccc3oc2=O)cs1)c1ccco1	inconclusive: -31.4%
Cc1cc2cc3c(cc2nc1SCC(=O)Nc1c(C)cccc1C)CCC3	inconclusive: -44.7%
CCOc1cccc(C(=O)NC(=S)Nc2ccccc2)c1	inactive: 6.93%
CC(=O)N1CCc2cc(S(=O)(=O)CCC(=O)O)ccc21	inconclusive: -50.5%
COc1ccc(NC(=O)[C@H](COCc2ccccc2)NC(=O)OC(C)(C)C)cc1	inconclusive: -39.3%
CC(=O)N1CCc2cc(C(=O)CN3CCCN(Cc4ccc(F)cc4)C3)ccc21	inactive: 32.5%
COC(=O)C1=C(O)/C(=C\c2cc(C)n(-c3ccccc3C)c2C)N=C1C	inconclusive: -75.9%
Cn1c(=O)[nH]c(=O)c2c1nc(N1CCOCC1)n2CCCSc1ncccn1	active: -114%
O=S(=O)(Nc1ccc(-n2cccc2)cc1)c1ccccc1	inconclusive: -66.3%
COc1nc2ccccc2c(=O)n1OCC(C)C	active: -81.6%
CCN(CC)S(=O)(=O)c1ccc(N2CCOCC2)c(NS(=O)(=O)c2cc(C(C)(C)C)ccc2C)c1	inconclusive: -30%
O=C1C2C3c4ccccc4C(c4ccccc43)C2c2nc3ccccc3n21 (stereo unspecified)	active: -100%
